From PMC13090976 (Cell Stress & Chaperones, 2026)
No constants are given. Whether binding was seen depends on the method and setting. Some binding calls cover weakened binding; strength is not graded here.

Sequences of proteins named here, by UniProt entry; tags and fusion partners are left off. A change or cut given only in a name is not applied to a line headed by its entry.
UniProt Q9UNE7: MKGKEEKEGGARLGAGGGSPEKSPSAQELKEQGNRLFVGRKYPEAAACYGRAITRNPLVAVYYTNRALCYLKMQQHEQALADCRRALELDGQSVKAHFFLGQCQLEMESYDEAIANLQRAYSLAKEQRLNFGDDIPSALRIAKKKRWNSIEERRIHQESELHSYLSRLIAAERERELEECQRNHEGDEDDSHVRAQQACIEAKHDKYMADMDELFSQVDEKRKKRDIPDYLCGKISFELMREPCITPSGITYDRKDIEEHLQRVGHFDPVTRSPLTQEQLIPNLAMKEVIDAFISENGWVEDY

How the values were obtained:
[1] = molecular target: T1, FITC-Ahx-GSGP(pT)IEEVD (human); assay: fluorescence polarisation; FITC-labelled peptide at 20 nM, recombinant CHIP constructs added at varied concentrations, 30 min at room temperature; one-site total binding fit, normalised to % of maximum binding; both purified
T1 sequence (peptide, FITC-Ahx on the N-terminus; phosphothreonine (pT; Thr636 in HSPA1A numbering)): GSGPTIEEVD

FITC-Ahx-… (human) = molecular target: T2, FITC-Ahx-… (human); assay: as above
T2 sequence (peptide, FITC-Ahx on the N-terminus): GSGPTIEEVD

[2] = molecular target: T3, HSP70 C-terminal octapeptide, phosphorylated at Thr636 (GP(pT)IEEVD) (human); assay: crystal structure; co-crystallisation of CHIP-TPR with peptide at 3:1 peptide:protein, 7 mg/ml total, sitting drop vapor diffusion at room temperature; 0.2 M lithium sulfate, 0.1 M Tris-HCl pH 8.5, 30% PEG 4000; both purified
T3 sequence (peptide, phosphothreonine at 636 (pT, HSPA1A numbering)): GPTIEEVD

Row | binding [1] | binding (FITC-Ahx-… (human)) | binding [2] | Substance
1 | no binding | no binding |  | full-length CHIP K30A (from UniProt Q9UNE7 1-303)
2 |  |  | binds | human CHIP-TPR (residues 21-154) (from UniProt Q9UNE7 21-154) (domain or fragment)
